Values quoted from earlier work, collected in US6403647B1, “Pulsed administration of compositions for the treatment of blood disorders” (priority 1996, dated 2002).
At least one compound was matched to its structure with a doubt left.

System: K562 human erythroleukemia cells
Conditions: cited from earlier work

| Structure (SMILES) | ability to increase fetal globin expression |
| --- | --- |
| CCCC(=O)O [butyrate] | much less of an effect |
| CCCCCCCCC(=O)O [nonanoate] | much less of an effect |
